± gives the standard deviation of the averaged measurements. This is one part of the list.

Chains of the proteins cited; added tags and fusions are not shown. Lines headed by an entry give the natural chain unless they say otherwise; changes in a name come on top.
UniProt P52732: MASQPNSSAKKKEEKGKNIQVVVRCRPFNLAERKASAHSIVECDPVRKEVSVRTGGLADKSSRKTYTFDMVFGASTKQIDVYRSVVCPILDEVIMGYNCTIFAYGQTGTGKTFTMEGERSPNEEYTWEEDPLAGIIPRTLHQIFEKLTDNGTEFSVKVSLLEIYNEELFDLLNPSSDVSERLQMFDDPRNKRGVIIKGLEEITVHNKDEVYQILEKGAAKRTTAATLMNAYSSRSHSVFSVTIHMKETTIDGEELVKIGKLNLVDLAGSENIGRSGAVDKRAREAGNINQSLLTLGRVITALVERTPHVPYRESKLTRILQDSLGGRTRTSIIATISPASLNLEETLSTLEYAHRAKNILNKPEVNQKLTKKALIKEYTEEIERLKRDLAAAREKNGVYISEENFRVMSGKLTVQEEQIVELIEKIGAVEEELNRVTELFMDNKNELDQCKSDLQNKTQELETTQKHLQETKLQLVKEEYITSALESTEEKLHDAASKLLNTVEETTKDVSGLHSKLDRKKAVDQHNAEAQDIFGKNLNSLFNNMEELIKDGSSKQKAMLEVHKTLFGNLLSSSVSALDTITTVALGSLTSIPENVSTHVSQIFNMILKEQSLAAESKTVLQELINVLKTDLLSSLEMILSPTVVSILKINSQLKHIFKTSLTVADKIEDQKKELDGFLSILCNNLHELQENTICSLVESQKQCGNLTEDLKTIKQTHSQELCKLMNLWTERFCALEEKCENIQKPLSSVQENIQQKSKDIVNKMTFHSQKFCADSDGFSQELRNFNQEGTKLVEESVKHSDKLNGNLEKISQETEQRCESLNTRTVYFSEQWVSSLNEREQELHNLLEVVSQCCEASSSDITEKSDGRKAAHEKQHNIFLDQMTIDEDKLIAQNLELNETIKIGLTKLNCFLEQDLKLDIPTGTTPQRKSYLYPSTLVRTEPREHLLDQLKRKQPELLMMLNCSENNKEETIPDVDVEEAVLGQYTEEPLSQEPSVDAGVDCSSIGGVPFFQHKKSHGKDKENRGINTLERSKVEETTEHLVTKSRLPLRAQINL
UniProt Q00325: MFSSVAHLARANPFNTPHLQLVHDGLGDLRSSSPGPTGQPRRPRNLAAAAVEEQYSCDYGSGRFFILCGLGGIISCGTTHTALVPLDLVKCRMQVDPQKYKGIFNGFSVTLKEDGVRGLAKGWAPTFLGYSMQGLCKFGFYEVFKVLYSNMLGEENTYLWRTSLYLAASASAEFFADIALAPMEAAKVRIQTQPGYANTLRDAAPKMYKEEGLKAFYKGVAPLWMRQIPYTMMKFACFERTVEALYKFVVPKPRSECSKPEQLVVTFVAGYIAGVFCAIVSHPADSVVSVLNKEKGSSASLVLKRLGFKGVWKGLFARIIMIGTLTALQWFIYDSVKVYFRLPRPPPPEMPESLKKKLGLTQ
UniProt P51665: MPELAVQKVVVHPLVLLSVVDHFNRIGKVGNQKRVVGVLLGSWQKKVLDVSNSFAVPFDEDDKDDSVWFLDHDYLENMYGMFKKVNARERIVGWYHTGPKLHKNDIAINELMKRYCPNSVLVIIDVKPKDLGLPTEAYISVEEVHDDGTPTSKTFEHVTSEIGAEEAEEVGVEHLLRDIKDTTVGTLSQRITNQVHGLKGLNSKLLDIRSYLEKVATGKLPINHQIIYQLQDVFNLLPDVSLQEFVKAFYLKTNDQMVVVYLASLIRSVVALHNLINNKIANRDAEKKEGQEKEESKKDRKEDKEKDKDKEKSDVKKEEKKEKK
UniProt P54198, whole entry: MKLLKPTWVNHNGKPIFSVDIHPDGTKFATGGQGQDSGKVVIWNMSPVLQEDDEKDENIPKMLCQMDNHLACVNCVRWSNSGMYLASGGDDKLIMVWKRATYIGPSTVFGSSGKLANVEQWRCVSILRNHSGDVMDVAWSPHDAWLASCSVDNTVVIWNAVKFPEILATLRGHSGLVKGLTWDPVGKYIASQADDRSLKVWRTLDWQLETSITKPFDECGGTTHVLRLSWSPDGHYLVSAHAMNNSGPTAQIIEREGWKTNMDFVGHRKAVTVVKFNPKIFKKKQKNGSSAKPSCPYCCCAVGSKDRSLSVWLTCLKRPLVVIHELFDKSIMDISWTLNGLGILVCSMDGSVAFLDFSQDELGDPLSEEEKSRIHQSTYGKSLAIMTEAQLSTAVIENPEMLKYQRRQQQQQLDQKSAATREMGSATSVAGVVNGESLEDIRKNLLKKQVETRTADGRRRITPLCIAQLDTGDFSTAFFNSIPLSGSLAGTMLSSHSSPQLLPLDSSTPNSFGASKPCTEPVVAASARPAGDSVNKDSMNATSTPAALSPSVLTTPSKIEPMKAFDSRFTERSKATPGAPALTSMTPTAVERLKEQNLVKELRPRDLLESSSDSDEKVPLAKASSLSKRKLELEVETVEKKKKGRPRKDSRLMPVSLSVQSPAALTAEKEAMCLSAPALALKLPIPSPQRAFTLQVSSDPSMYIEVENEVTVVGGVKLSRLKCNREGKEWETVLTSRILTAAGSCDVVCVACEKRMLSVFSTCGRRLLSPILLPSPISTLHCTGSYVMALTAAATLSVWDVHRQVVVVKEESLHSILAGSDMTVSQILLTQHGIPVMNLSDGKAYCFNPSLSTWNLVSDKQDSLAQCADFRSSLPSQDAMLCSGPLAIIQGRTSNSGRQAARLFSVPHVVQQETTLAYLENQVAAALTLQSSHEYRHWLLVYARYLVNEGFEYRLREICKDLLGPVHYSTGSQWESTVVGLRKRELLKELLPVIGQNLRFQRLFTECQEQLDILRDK

Compound in this test: Nc1nc2c(ncn2[C@@H]2O[C@H](COP(=O)(O)OP(=O)(O)OP(=O)(O)O)[C@@H](O)[C@H]2O)c(=O)[nH]1 [guanosine triphosphate]
Put plainly: NP40-soluble protein abundance relative to vehicle (solubility fold change) (ratio); higher = more soluble protein in presence of GTP. On the procedure: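 Solubility proteome profiling in Jurkat crude lysate. Lysate was treated with Mg-GTP (0.1-10 mM) for 10 min at room temperature and 3 min at 37 °C, then solubilised with 0.8% NP40 and benzonase, followed by ultracentrifugation. Proteins were quantified by TMT10 LC-MS/MS; the value is the NP40-soluble abundance relative to the NP40-processed vehicle, from 3 independent experiments.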

As for UniProt P62851, the NP40-soluble protein abundance turned out to be 0.853 ± 0.11 (concentration: 0.1mM); 0.926 ± 0.095 (concentration: 0.5mM); 1.12 ± 0.18 (concentration: 1mM); 1.14 ± 0.24 (concentration: 2mM); 1.08 ± 0.38 (concentration: 4mM); 1.05 ± 0.28 (concentration: 6mM). Besides, the NP40-soluble protein abundance was determined as 0.578 ± 0.13 (concentration: 8mM) and 1.33 ± 0.44 (concentration: 10mM).
On to KIF11 (UniProt P52732), for which the NP40-soluble protein abundance is 0.983 ± 0.022 (concentration: 0.1mM); 0.998 ± 0.015 (concentration: 0.5mM); 0.972 ± 0.012 (concentration: 1mM); 0.954 ± 0.025 (concentration: 2mM); 0.945 ± 0.022 (concentration: 4mM); 0.963 ± 0.02 (concentration: 6mM). Further, the NP40-soluble protein abundance is, setting by setting: (concentration: 8mM) 0.976 ± 0.015; (concentration: 10mM) 0.937 ± 0.021.
In the case of UniProt Q00325 and related entries, the NP40-soluble protein abundance came out at 1.03 ± 0.034 (concentration: 0.1mM); 1.05 ± 0.11 (concentration: 0.5mM); 0.886 ± 0.03 (concentration: 1mM); 0.944 ± 0.13 (concentration: 2mM); 0.939 ± 0.08 (concentration: 4mM); 0.924 ± 0.089 (concentration: 6mM). For the same target, the NP40-soluble protein abundance reads like this: (concentration: 8mM) 0.858 ± 0.032; (concentration: 10mM) 0.861 ± 0.074.
Turning to PSMD7 (UniProt P51665), the NP40-soluble protein abundance reads like this: (concentration: 0.1mM) 0.976 ± 0.028; (concentration: 0.5mM) 1.02 ± 0.041; (concentration: 1mM) 0.981 ± 0.089; (concentration: 2mM) 1 ± 0.1; (concentration: 4mM) 1.02 ± 0.11; (concentration: 6mM) 1.06 ± 0.13. The NP40-soluble protein abundance by setting is: (concentration: 8mM) 1.01 ± 0.1; (concentration: 10mM) 0.965 ± 0.11.
Take HIRA (UniProt P54198): the NP40-soluble protein abundance by setting is: (concentration: 0.1mM) 1.07 ± 0.036; (concentration: 0.5mM) 1.06 ± 0.011; (concentration: 1mM) 1.02 ± 0.026; (concentration: 2mM) 1.13 ± 0.1; (concentration: 4mM) 1.13 ± 0.1; (concentration: 6mM) 1.13 ± 0.17. In addition, the NP40-soluble protein abundance by setting is: (concentration: 8mM) 1.15 ± 0.021; (concentration: 10mM) 1.22 ± 0.021.

These data come from the supplement of paper PMC6411743.
